Results are given in words; binding and its absence hold for the method and conditions named. In cells and extracts the contact can be indirect. Some binding calls cover weakened binding; strength is not graded here.

Sequences of proteins named here, by UniProt entry; tags and fusion partners are left off. Residues count along the entry.
UniProt P48679, residues 1-647: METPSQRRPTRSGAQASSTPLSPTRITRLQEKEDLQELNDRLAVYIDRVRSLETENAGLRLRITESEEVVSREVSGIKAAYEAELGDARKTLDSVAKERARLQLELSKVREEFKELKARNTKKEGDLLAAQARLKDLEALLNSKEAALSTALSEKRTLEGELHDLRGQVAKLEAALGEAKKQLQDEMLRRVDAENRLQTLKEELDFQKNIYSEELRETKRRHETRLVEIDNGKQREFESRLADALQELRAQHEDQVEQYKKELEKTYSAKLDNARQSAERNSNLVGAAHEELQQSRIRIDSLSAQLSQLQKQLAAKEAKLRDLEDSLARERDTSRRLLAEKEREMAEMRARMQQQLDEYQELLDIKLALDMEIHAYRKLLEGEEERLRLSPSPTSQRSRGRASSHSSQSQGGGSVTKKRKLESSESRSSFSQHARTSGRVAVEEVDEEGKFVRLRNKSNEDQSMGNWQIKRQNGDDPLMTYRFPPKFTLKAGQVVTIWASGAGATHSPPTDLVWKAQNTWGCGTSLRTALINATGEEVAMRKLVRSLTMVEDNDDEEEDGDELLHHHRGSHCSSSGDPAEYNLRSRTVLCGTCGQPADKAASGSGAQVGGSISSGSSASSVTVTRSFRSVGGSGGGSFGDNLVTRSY
UniProt P02545, residues 1-646: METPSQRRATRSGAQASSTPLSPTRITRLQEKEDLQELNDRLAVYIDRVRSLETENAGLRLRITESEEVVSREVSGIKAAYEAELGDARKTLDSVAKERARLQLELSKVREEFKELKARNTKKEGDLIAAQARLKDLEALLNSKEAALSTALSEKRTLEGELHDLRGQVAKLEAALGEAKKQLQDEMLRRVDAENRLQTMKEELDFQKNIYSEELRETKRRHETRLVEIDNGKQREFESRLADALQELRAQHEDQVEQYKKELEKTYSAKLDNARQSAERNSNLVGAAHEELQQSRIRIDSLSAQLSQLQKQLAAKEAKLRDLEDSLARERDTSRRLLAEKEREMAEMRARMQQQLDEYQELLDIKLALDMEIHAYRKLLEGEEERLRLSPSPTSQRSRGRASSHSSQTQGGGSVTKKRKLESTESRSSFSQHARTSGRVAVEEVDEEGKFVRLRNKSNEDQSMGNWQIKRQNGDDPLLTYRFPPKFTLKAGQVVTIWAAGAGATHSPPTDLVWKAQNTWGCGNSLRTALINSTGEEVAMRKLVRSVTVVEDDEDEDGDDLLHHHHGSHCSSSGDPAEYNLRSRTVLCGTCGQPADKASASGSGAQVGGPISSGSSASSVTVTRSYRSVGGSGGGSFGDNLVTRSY

For test [1], the target named is His-tagged CUL3 (Cullin-3), expressed in A10 cells (UniProt Q13618). Put plainly: co-IP; A10 rat aortic smooth muscle cells; IP with IgG or anti-His antibody, Western blot; cells treated with nonspecific control siRNA or siRNA targeting Lmna.
The target in test [2] is His-tagged CUL3 (Cullin-3), expressed in HEK293 cells (UniProt Q13618). The test can be described thus: co-IP; HEK293 cells transfected with His-CUL3; lysate (1% Triton X-100, 150 mmol/L NaCl, pH 7.5) incubated with anti-His-tag magnetic beads overnight at 4°C, IgG as control; Western blot; for Rab5 cells also treated with siRNA to Rab5c or nonspecific control for 72 hours.

“Lamin A/C, endogenous in A10 cells (from UniProt P48679 1-647)”: the binding entry in test [1] was “binds”.

For “Lamin A/C, endogenous in HEK293 cells (from UniProt P02545 1-646)”, the binding result in test [2] was “binds”.

Values taken from article PMC12333948.
